These are yes or no findings as the source states them, for the method shown. Binding seen in cells or lysates may run through a third protein. Some entries that bind do so weakly or less than the wild type. For some of these results: Sequences can lack the tags named with a protein.
Key:
AKAP79-YFP [1] = molecular target: AKAP79-YFP (UniProt P24588); test: co-IP; AKAP79-YFP or PKA mutant AKAP79-YFP precipitated with anti-GFP from lysate of HEK293 cells with endogenous AKAP79 knocked down and myc-Orai1 co-expressed; cells at rest and after thapsigargin in 2 mM external Ca2+
AKAP79-YFP [2] = molecular target: AKAP79-YFP (UniProt P24588); test: condition: only resting cells (no store depletion with thapsigargin); co-IP; as a2, resting cells only (no thapsigargin, stores not depleted)
GFP-tagged Orai1 = GFP-tagged Orai1 (UniProt Q96D31); test: co-IP; GFP-tagged Orai1 precipitated from HEK293 lysate; blots for endogenous PDE4, protein kinase A and AKAP79; cells at rest and after thapsigargin for 8 min in 2 mM external Ca2+; cells pre-treated with boiled StHT-31 included
NFAT1-GFP = molecular target: T1, NFAT1-GFP (UniProt Q13469); test: co-IP; NFAT1-GFP precipitated with anti-GFP agarose beads at 4°C from HEK293 lysate (50 mM Tris-HCl pH 7.5, 150 mM NaCl, 1% Triton X-100, 4 mM EGTA); blots for endogenous proteins; cells at rest and after 2 uM thapsigargin in Ca2+-free external solution
T1 sequence: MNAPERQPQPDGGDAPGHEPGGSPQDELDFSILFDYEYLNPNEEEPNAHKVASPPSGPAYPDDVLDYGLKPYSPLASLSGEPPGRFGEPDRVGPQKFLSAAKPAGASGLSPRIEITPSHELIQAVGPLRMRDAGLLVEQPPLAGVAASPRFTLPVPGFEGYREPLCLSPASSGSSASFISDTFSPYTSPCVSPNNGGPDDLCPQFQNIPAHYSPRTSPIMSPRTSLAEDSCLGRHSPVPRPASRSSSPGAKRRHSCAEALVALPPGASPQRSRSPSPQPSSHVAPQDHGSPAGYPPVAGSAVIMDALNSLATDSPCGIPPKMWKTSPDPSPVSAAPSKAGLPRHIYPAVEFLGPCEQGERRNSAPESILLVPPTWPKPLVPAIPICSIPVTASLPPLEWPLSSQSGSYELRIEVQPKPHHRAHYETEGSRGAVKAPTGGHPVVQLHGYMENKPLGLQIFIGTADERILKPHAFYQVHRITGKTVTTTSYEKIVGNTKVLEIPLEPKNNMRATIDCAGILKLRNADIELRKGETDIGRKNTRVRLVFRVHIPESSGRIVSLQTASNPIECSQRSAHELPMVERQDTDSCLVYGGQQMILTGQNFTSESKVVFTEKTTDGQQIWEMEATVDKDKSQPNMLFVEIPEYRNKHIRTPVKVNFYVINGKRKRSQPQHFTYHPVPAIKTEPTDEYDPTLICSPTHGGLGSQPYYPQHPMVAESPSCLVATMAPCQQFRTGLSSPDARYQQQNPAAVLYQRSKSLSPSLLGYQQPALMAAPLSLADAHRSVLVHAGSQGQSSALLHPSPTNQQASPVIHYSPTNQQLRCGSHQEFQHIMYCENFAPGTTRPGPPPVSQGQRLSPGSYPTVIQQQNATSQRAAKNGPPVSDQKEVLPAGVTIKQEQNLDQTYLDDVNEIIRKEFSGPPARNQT

Amino acid sequences for entries named in this document (tags omitted).
UniProt Q96D31: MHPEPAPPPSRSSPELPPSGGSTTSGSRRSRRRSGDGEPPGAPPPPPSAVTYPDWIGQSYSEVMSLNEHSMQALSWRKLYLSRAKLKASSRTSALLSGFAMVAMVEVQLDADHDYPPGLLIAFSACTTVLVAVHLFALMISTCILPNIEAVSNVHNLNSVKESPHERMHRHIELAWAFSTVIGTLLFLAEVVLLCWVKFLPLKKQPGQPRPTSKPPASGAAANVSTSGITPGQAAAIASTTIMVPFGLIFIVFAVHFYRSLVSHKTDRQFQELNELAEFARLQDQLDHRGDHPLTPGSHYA

binding (AKAP79-YFP [1]) | binding (AKAP79-YFP [2]) | binding (GFP-tagged Orai1) | binding (NFAT1-GFP) | Substance
binds | no binding |  |  | Orai1-myc (from UniProt Q96D31 1-301)
 |  | binds | binds | AKAP79 (endogenous) (from UniProt P24588 1-427)

Reference: paper PMC8394516
